From publication PMC11538284 come the findings set out here.

The chains behind the UniProt entries cited, without tags or fusion partners. Where a name states a change or a piece, a line headed by the entry shows the natural chain unless it says otherwise.
UniProt O60264: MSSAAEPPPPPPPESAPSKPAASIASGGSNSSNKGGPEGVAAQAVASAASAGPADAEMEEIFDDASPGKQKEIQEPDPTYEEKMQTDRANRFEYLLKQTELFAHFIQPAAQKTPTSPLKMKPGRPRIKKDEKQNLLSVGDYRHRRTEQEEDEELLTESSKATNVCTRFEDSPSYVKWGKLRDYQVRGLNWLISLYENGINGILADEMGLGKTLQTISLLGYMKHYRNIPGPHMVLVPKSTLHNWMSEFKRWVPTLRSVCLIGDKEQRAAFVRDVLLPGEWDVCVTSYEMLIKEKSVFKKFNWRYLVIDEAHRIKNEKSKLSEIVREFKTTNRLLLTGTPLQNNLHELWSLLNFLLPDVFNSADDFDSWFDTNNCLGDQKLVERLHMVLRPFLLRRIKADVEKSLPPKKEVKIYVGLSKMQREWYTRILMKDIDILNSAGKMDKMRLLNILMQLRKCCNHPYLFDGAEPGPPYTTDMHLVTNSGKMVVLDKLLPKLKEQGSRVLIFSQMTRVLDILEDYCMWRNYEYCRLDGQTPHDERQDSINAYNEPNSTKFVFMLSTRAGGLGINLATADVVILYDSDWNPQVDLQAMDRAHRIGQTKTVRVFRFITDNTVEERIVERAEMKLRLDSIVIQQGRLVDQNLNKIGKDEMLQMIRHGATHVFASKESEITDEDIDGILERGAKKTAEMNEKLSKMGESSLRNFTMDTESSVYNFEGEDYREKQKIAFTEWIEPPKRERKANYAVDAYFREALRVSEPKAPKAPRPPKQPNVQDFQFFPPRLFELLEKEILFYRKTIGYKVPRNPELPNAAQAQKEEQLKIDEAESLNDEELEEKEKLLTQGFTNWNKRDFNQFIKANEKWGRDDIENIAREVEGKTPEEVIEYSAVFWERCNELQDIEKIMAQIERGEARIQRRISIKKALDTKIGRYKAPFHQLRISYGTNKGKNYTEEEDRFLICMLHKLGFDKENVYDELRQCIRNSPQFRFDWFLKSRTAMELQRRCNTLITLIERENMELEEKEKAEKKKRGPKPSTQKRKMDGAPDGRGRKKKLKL

Assay [1] has as its target T1, Ubiquitin-specific protease 3 (USP3), endogenous (human (endogenous in PC3)) (UniProt Q9Y6I4).
T1 sequence: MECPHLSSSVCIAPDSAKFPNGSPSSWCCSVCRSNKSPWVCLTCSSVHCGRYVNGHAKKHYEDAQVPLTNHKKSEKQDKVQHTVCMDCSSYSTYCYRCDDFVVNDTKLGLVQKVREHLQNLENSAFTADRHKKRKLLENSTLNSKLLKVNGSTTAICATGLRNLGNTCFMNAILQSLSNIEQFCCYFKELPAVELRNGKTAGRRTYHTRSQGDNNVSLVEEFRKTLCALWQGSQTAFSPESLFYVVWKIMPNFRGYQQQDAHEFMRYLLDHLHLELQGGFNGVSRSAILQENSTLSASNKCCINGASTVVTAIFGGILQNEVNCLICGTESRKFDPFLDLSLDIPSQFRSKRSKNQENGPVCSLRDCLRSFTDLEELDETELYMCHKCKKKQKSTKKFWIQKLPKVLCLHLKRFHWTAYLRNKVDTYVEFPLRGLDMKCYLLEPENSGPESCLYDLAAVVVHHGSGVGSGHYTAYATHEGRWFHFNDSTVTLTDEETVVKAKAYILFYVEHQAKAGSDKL
Kind of assay: co-IP; endogenous USP3 and SMARCA5 in PC3 cells.

Assay [2] deals with T2, Flag-tagged USP3 (in PC3 cells) (UniProt Q9Y6I4).
T2 sequence: T1 sequence
The assay is described as follows: co-IP; Flag-tagged USP3 or HA-tagged SMARCA5 expressed in PC3 cells, endogenous partner detected.

Assay [3] deals with T3, Flag-tagged full-length USP3 (in HEK293T cells) (UniProt Q9Y6I4).
T3 sequence: T1 sequence
The assay is described as follows: co-IP; HEK293T cells co-transfected with HA- and Flag-tagged constructs, cell lysates subjected to IP and detected with the indicated antibodies.

Assay [4] deals with HA-tagged SMARCA5 (in PC3 cells) (UniProt O60264). The assay is described as follows: co-IP; Flag-tagged USP3 or HA-tagged SMARCA5 expressed in PC3 cells, endogenous partner detected.
The target of assay [5] is HA-tagged full-length SMARCA5 (in HEK293T cells) (UniProt O60264). Kind of assay: co-IP; HEK293T cells co-transfected with HA- and Flag-tagged constructs, cell lysates subjected to IP and detected with the indicated antibodies.

These are yes or no findings as the source states them, for the method shown. Binding seen in cells or lysates may run through a third protein. Some entries that bind do so weakly or less than the wild type. For some assays here: Sequences can lack the tags named with a protein.

Take “SMARCA5, SWI/SNF-related matrix-associated actin-dependent regulator of chromatin subfamily A member 5, endogenous (from UniProt O60264 1-1052) (enzyme)”: the binding result in assay [1] and in assay [2] was “binds” each time.

In the case of “HA-tagged SMARCA5 deletion mutant (487-638), Helicase C-terminal (from UniProt O60264 487-638) (domain or fragment)”, the binding entry in assay [3] was “binds”.

B1: Ubiquitin-specific protease 3 (USP3), endogenous (enzyme, UniProt Q9Y6I4 1-520)
chain: T1 sequence
Consider B1, for which the binding entry in assay [4] is listed as “binds”.

B2: Flag-tagged USP3 UCH domain (deletion mutant) (domain or fragment, UniProt Q9Y6I4 159-520)
chain: TGLRNLGNTCFMNAILQSLSNIEQFCCYFKELPAVELRNGKTAGRRTYHTRSQGDNNVSLVEEFRKTLCALWQGSQTAFSPESLFYVVWKIMPNFRGYQQQDAHEFMRYLLDHLHLELQGGFNGVSRSAILQENSTLSASNKCCINGASTVVTAIFGGILQNEVNCLICGTESRKFDPFLDLSLDIPSQFRSKRSKNQENGPVCSLRDCLRSFTDLEELDETELYMCHKCKKKQKSTKKFWIQKLPKVLCLHLKRFHWTAYLRNKVDTYVEFPLRGLDMKCYLLEPENSGPESCLYDLAAVVVHHGSGVGSGHYTAYATHEGRWFHFNDSTVTLTDEETVVKAKAYILFYVEHQAKAGSDKL
Regarding B2, the binding result in assay [5] was “binds”.
